We go through seven sequences from publication PMC3742746, “A Novel TetR Family Transcriptional Regulator, SAV576, Negatively Controls Avermectin Biosynthesis in Streptomyces avermitilis”.

Construct, isoform or probe ends are uncertain for at least one entry. No signal at the amounts used counts as a negative. At least one verdict was read from the data and is not stated in words by the source. Where a protein sequence is shown, tags need not be part of it.

The first data set addresses T1, His6-SAV576 (TetR family regulator) (Streptomyces avermitilis ATCC31267) (UniProt Q82QD4).
T1 sequence (looked up, limits assumed): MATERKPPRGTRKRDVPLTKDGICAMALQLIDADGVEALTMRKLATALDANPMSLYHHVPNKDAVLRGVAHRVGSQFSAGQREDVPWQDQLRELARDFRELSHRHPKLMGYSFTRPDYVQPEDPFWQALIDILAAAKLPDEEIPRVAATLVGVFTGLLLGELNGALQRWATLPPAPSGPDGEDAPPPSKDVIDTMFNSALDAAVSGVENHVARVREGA
The experiment in a line: EMSA. The settings on record: EMSA: Roche DIG Gel Shift Kit binding buffer (composition not stated), 0.3 nM probe, 1 µg poly[d(I-C)] in 20 µl, 25°C 30 min, 5% PAGE 0.5x TBE; recombinant protein; protein details: His6 (pET-28a); label: 3' DIG.
For the sequence “TGAAGGCATACAGCGTATGGAAACGGGGCGCTGCCGTACCGGC (double strand) [probe 1a]”, the binding result was “binds”.

The data set is the same for the next values; noted with them: EMSA: Roche DIG Gel Shift Kit binding buffer (composition not stated), 0.3 nM probe, 1 µg poly[d(I-C)] in 20 µl, 25°C 30 min, 5% PAGE 0.5x TBE; recombinant protein; protein details: His6 (pET-28a); label: 3' DIG; probe letters rebuilt from the primers and the genome.
Take “AGGACGGTGGCATCGTTTTCAGCCCCTCGTTCCTCCGGTTTCGCGGAAGCGGGCTGTGTGCTGGTGGGCGGCGTAACTGGCGACGGGCAGTCCCGAACTGGTGGCCTTGATGGCCGACGAGGTCGTCAAGGCATGCCTCGGCCAGGAAAAGGCTCAGGCGGGAAGCTGCGCTCGAGGGGTGCAGCAAGGCGCTCGAGCGGCGGCTTCAGCGCACTGCCGCCTGACGTGTGCGGGCGTAGGACCGGGCGAGGCGTGTCGACCGCTCCCACTCCCGGTGTGCTCGCCCGCGGCGGCGGATCGCAGATATGCCCTGCCGAGGAGACCCTGGCGAAC (double strand) [probe 5]”: the binding result is “no binding”.
Same read-out and setting: as for “ATCATGGTCGGGAACCTCCGCAATCCGGGCCGGGCGGCCCAGCTGTCGTGGCGATCTACTCCAGGAAACGTAGACCTTTTTCTGCCACTTGTCCGAGCTATGCAGACACCCCGATCCCCTAAGAAATGAACACCCTTGGGAACGGCACAGCCCAGGGGTGGATAGGGGTATTCGCCGCCGCCGCGCCGTCATTAGCTTTGAAGAGTTGAAGACGTTCAAGACATTGATGCCCGGCCGTCAGCGGATTTCTCGCGCTCCTTTCATTCTTCGACGCTGCATTGCAGCTCTCATCATGTCCGCACGGCCGCCGAGCATTGCCTAGCGGTGA (double strand) [probe 8]”, the entry is “no binding”; as for “GAAACTCAATCGGCAGACCTGGGGTCGAGAAACAGGAACGTTTCGGCCCATCAGGGACGGCGTCGCTCACGCAGCGGGGTCGCATCAGGATCAGGCGCTGCCGAACGCTCTCCCGGCTGGAGGAGGCGAGGGGAGACCGGTCGCCGCCAGCCGGCGGCTCGACCGGGCCACCGGTGGGTGCGCCCCGGGGAGGACACCCACGATCCGCGACGGCGGCCGCGGCTACATCCCGGTGAGCAGCCAATCCCCCTGCCCGCCAGTACGCATCGCGGAGGT (double strand) [probe 3]”, “no binding”; as for “GAAGGCATACAGCGTATGGAAACGGGGCGCTGCCGTACCGGCGCCCCGTCACACCGAATGGCGCCCTGCCCGCCTTTCCCCTTGGAGGAGCCAGCCAT (double strand) [probe 1]”, “binds”.
Regarding “GGAGGACACCCACGATCCGCGACGGCGGCCGCGGCTACATCCCGGTGAGCAGCCAATCCCCCTGCCCGCCAGTACGCATCGCGGAGGTCGGGTCTGCACCCATGCGCGTCGGCGACTGACGGCAGCGCCGGAGAAGCAGGCGCGTGTGCCGCCTCGCGGCGGCGCCCGTACGTCTCCATGCCGCGCTCGATCAGGCCGGTATCAGTCCGCGAGAGCGGGCAAGGCGGGTTCGCCAGGGTCTCCTCGGCAGGGCATAT (double strand) [probe 4]”, the binding result is “no binding”.
Same read-out and setting: the entry for “GGTATTCCATTCGGTGTTGCAGCACGCGACCCACTGCGCATCCCACTCGTGAATTGTGGACCGCCATCCGGGGCACGGATGTCTCCAGGAAGGAACTCCTTCACCCTCGCGAACACCACCTCAGAATCCCACGATCATCAGTTAATCATCAAAGTCAGCGACCTTGACACTACCCCGCCCACCAGGGCAAATTCATAACA (double strand) [probe 7]” is “no binding”.
